Measurements taken from paper PMC3192040.
Substitutions are numbered along the chain they refer to. Results are given in words; binding and its absence hold for the method and conditions named. Binding seen in cells or lysates may run through a third protein. Some results given as binding are weak or reduced against the parent protein; the word gives no strength. Sequences can lack the tags named with a protein.

The chains behind the UniProt entries cited, without tags or fusion partners. Where a name states a change or a piece, a line headed by the entry shows the natural chain unless it says otherwise. A line that says so, or that is headed by a name, gives the form on record, which may keep a tag or linker.
HSV-tagged SP100A (P23497-2, form named): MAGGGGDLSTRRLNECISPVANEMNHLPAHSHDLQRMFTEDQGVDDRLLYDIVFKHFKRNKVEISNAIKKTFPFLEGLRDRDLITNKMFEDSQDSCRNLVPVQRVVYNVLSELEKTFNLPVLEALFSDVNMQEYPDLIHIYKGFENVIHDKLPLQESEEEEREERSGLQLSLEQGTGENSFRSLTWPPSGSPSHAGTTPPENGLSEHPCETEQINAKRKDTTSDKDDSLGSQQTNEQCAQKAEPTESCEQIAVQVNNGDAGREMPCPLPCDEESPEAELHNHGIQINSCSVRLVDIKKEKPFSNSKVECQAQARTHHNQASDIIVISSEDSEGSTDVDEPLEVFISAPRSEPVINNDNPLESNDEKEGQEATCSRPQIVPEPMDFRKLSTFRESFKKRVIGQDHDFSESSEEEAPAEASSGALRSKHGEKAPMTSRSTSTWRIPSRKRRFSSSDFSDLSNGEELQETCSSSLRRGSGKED

Assays:
V5-tagged FOXL2-KFULL = biological target: T1, V5-tagged FOXL2-KFULL (UniProt P58012); test: co-IP; SP100-HSV co-expressed with V5-tagged FOXL2-WT or KFULL; FOXL2 precipitated with anti-V5-conjugated affinity resin; blot with anti-HSV and anti-FOXL2
T1 sequence: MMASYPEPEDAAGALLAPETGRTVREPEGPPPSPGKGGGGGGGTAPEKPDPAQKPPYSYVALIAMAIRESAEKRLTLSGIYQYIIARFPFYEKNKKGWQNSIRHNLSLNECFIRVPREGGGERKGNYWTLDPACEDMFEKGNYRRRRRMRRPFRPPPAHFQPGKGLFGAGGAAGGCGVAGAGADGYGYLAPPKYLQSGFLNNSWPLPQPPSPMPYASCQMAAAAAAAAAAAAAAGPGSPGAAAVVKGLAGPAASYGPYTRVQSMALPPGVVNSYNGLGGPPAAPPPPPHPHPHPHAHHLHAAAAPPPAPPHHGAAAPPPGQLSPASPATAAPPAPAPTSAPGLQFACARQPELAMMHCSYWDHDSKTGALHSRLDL

V5-tagged FOXL2-WT = biological target: T2, V5-tagged FOXL2-WT (UniProt P58012); test: as above
T2 sequence: T1 sequence with R25K, R87K, R114K, R150K

binding (V5-tagged FOXL2-KFULL): binds
binding (V5-tagged FOXL2-WT): binds
Substance: HSV-tagged SP100A (from UniProt P23497-2 1-480)
